Assay results as given in PMC8094117.
No constants are given. Whether binding was seen depends on the method and setting. Binding seen in cells or lysates may run through a third protein. Some entries that bind do so weakly or less than the wild type. Sequences can lack the tags named with a protein.

Amino acid sequences for entries named in this document (tags omitted).
UniProt P38903: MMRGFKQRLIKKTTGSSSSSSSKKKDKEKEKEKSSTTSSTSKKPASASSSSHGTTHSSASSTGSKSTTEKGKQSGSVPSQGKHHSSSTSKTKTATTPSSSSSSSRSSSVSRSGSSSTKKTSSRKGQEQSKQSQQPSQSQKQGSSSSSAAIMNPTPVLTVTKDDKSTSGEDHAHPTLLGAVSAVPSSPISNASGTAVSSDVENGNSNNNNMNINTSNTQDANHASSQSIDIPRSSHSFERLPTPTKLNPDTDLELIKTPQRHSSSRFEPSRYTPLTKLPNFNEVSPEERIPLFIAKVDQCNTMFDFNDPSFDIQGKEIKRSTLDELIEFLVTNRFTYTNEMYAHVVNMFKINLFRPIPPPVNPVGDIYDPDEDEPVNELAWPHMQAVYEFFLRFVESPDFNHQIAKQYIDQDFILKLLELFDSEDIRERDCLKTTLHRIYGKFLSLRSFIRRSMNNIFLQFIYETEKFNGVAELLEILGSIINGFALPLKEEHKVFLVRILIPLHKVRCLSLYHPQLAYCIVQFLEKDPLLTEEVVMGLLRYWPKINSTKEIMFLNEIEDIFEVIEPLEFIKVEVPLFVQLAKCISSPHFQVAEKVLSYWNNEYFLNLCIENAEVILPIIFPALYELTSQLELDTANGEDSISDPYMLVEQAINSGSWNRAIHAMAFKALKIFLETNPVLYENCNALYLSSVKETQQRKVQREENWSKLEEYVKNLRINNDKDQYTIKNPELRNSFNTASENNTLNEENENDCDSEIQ

Target: Rts1-9Myc (S. cerevisiae) (UniProt P38903)
Experiment: pull-down; Rts1-9Myc immunoprecipitated from sgo1Δ RTS1-9MYC lysate on anti-Myc Protein G Dynabeads, then incubated with products of in vitro SUMOylation of Sgo1 (with or without ATP); anti-V5 and anti-Myc blots; only the binder purified

B1: recombinant Hisx7-V5-tagged Sgo1, unSUMOylated (protein, UniProt Q08490 1-590)
chain: MPKRKIAPNKESSRRTVSHDDLTPQIQEFQNLMDLESQKVENIRQSYSRQNSLLAKDNSILKIKVNSLEKKISQLVQENVTLRSKTSISEAIYRERLSNQLQVIENGIIQRFDEIFYMFENVRKNENLPSSSLRTMLKRTSSRSRSCSLSSPTYSKSYTRLSNHENNLSHESSFNKDDGPDLEPKAKKRKSSRRQSMFVSTSLEPEDETGENEPMMENSSVEVPAESHESAQVEETIDALNPEEENSDSVSNFTNSIIEYSIPEENPTEPEHSSSKLEIFNDSTNMLSTVPSNPLPLPLPGPSATLPTTTSDASTVYPSSSSSTNSHPKTKIKHSMKPPRIELKKKVIDEVMPVSNMSSNSEISFTRTRRTRGKAVDYTLPSLRAKMRRPSEKLVDATTVIDIHDLQVSKRNRETSHKRKSLSQDSIPDEPQLREVVVSKDYGTPKGKKTEDEIHEDTAHLMTTSNNNSNNKNEKKLTSNNSPKKSSPLLDITNKSENKKKSTRTKKLFKNAIVNNLSDENSTTRPSKSSKGTSNNNNNYNNFDNNNSNINNVNNKSVSFRLNEDDLAVFDLFGNGKAVKHQPKTYRTKK
binding: binds
